# Source: PubChem BioAssay AID2283234 (EPA ToxCast)
# The inconclusive results got no clear call from the source; some entries with a clear call stand among them for comparison. Where the call is inconclusive, the potency comes from a doubtful curve fit. The source made the active and inactive calls. Rule for the calls: active = hit-call score of the fitted dose curve at least 0.9, where 1 is the maximum; inconclusive = response in the unintended direction; inactive = score below 0.9.
# Target: human Dual Specificity Styrosine-Phosphorylation-Regulated Kinase 1A (DYRK1a), DYRK1A (gene 1859) (UniProt Q13627)
# Assay: NVS_ENZ_hDYRK1a: NovaScreen (NVS) Enzymatic Assay for human Dual Specificity Styrosine-Phosphorylation-Regulated Kinase 1A (DYRK1a)
# Method: NVS_ENZ_hDYRK1a is a biochemical, single-readout assay that uses extracted gene-proteins in a cell-free assay. Measurements were taken 1 hour after chemical dosing in a 96-well plate.NVS_ENZ_hDYRK1a is one of one assay component(s) measured or calculated from the NVS_ENZ_hDYRK1a assay. It is designed to make measurements of enzyme activity, a form of enzyme reporter, as detected with fluorescence intensity signals by Fluorescence and electrophoretic mobility shift technology.Data from the assay component NVS_ENZ_hDYRK1a was analyzed into 1 assay endpoint. This assay endpoint, NVS_ENZ_hDYRK1a, was analyzed in the positive analysis fitting direction relative to DMSO as the negative control and baseline of activity. Using a type of enzyme reporter, loss-of-signal activity can be used to understand changes in the enzymatic activity as they relate to the gene DYRK1A. Furthermore, this assay endpoint can be referred to as a primary readout, because this assay has produced multiple assay endpoints where this one serves a enzymatic activity function. To generalize the intended target to other relatable targets, this assay endpoint is annotated to the kinase intended target family, where the subfamily is dual-specific kinase.
# Binding assays used specific radioligands (tritiated, iodinated) with non-radioactive competitive displacement ligands in agonist or antagonist protocols (as indicated) and various reference compounds and inhibitors to titrate specific binding to receptors and transporters. Most enzyme assays (CYPs, kinases, phosphatases, proteases, HDACs) used recombinant protein and specific substrates (fluorescence mostly, some colorimetric and radioactive) and inhibitors, followed by a biochemical separation of substrate and product. All assays for the biochemical HTS were initially run in duplicate at a single concentration (10 uM for CYP450 assays and 25 uM for all others). […] Each assay was run with positive and negative controls, and concurrent controls on every plate. […]
SMILES,AC50,outcome
CCN(CC)C(=O)c1cccc(C)c1,inconclusive: 25 µM,
COC(=O)c1ccc(CNS(C)(=O)=O)cc1S(=O)(=O)NC(=O)Nc1nc(OC)cc(OC)n1,inconclusive: 25 µM,
N#CSCSc1nc2ccccc2s1,,inactive
